Experimental data from patent publication US20070072187A1, “Novel methods and apparatus for cell based microarray assays” (priority 2003, published 2007).
At least one structure is not confirmed: it was looked up by name or label, or the drawing left a doubt.

Legend:
[1] = test system: Escherichia coli (strain XL2 Blue); test: bacterial growth assay on porous support with nutrients supplied from a supply chamber (Syto9 staining); type: cell-based; details: 200 ng rifampicin printed on test areas A and B vs test areas C and D with no antibiotics; 3 hours growth; Syto9 stain
[2] = test system: mixture of E. coli and S. aureus; test: bacterial growth assay on porous support with nutrients supplied from a supply chamber (FISH probe detection); type: cell-based, Escherichia coli and Staphylococcus aureus; details: 200 ng rifampicin in test area B vs area A with no antibiotics; 3 hours growth; FISH probes F1 (Cy3) and F2 (Cy5)

## CO[C@H]1/C=C/O[C@@]2(C)Oc3c(C)c(O)c4c(O)c(c(/C=N/N5CCN(C)CC5)c(O)c4c3C2=O)NC(=O)/C(C)=C\C=C\[C@H](C)[C@H](O)[C@@H](C)[C@@H](O)[C@@H](C)[C@H](OC(C)=O)[C@@H]1C [rifampicin]
[1]
  growth of bacteria (fluorescence imaging, low powered objective): Inhibition of growth was obvious
[2]
  growth of bacteria (fluorescence imaging, low powered objective): Inhibition of growth was obvious
